Source: US12268901B2, “Targeting cell tropism receptors to inhibit cytomegalovirus infection” (priority 2017, dated 2025)
At least one compound was matched to its structure with a doubt left.

What was measured:
[1] = system: TB40E-GFP infection of ARPE19 cells; test: cAMP/PKA signaling pathway modulation, TB40E-GFP infection; assay type: cell-based, Human cytomegalovirus (HCMV); conditions: FSK 20 μM, 2 h prior to infection
Description: (§1) FIGS. 7A-C. HCMV receptor engagement and cAMP/PKA signaling. ARPE19 or OR14I1 knock down cells were pretreated with phosphokinase A (PKA) inhibitor H-89 (20 μM), adenylate cyclase antagonist, SQ22536 (150 μM), or adenylate cyclase activator, forskolin (FSK; 20 μM) for 2 h prior to TB40E-GFP infection (MOI=4.0). Cells were fixed at 48 hpi and images taken.
H-89, SQ22536 and Foskolin were purchased from Sigma-Aldrich Chemicals. Wild type ARPE19 or ARPE19 cells expressing the indicated shRNAs were treated with protein kinase A (PKA) inhibitor H-89 (20 μM), adenylate cyclase antagonist, SQ22536 (150 μM), or adenylate cyclase activator, forskolin (FSK; 20 μM) for 2 h prior to infection with TB40E-GFP (MOI=2.0). After 2 h, the medium was then replaced by the standard medium that also contained the noted small molecules. Images were taken at 2 dpi.
as §1, with “HCMV” for “FIGS. 7A-C. HCMV”, “signaling was also evaluated.” for “signaling.”, “(MOI=4.0).” for “(MOI=4.0). Cells were fixed at 48 hpi and images taken.”

HCMV = conditions: LY294002, Filippakis et al., BBA 1813: 1872-82, 2011; cited from earlier work
[2] = system: Akt phosphorylation in ARPE19 cells; test: PI3/Akt signaling induced by virus binding (immunoblot phospho Akt ser473); assay type: cell-based; conditions: LY294002 50 uM pretreatment two hours, ARPE19, MOI of 2.0, 0, 5, 10 mins post infection
Description: FIGS. 8A-C. […] (A) Cells were serum starved at 37° C. for overnight and cells were pretreated with DMSO (control), LY294002 (50 uM) in serum-free medium prior to infection for two hours. Plated cells were cooled on ice for 30 mins. Cells were infected by purified TB40E-GFP virus (no serum) at MOI of 2.0 PFU per cell for 2 hours on ice. Cell plates were then shifted to 37° C. incubator (time 0). Cells were harvested at 0, 5, 10 mins post infection. Protein extracts were subjected to immunoblotting with anti-phospho Akt (ser473), Akt or anti-β-actin (loading control). (B) ARPE19 epithelial sgCon and sgOR14I1 knock out cells were serum starved at 37° C. for overnight. Plated cells were cooled on ice for 30 mins. Cells were infected by purified TB40E-GFP virus (no serum) at MOI of 2.0 PFU per cell for 2 hours on ice. Cell plates were then shifted to 37° C. incubator (time 0). Cell were harvested at 0, 5 mins post infection. (C) Peptide 1 (100 ug/ml) was preincubated with TB40E-GFP virus at 37° C. for 2 h and the mixture applied to ARPE19 cells. The phosphorylation of Akt and total Akt were detected 30 minutes post infection of TB40E-GFP.
Cells were serum starved at 37° C. for overnight and cells were pretreated with DMSO (DMSO-carrier control) or LY294002 (50 uM) in serum-free medium prior to infection for two hours. Cell plates were cooled on ice for 30 mins. […]

| SMILES | infectivity of TB40E-GFP in shOR14I1 knock down ARPE19 epithelial cells ([1]; MOI=4.0) | infectivity of TB40E-GFP in ARPE19 epithelial cells ([1]; H-89 20 μM, SQ22536 150 μM, MOI=4.0, 48 hpi) | IE, E-L protein expression and virus yield (HCMV) | Akt phosphorylation after TB40E-GFP infection [2] |
| --- | --- | --- | --- | --- |
| C=C[C@@]1(C)CC(=O)[C@]2(O)[C@@]3(C)[C@@H](O)CCC(C)(C)[C@@H]3[C@H](O)[C@H](OC(C)=O)[C@@]2(C)O1 [FSK, forskolin] | not in shOR14I1 knock down ARPE19 epithelial cells | improved infection activity | – | – |
| O=c1cc(N2CCOCC2)oc2c(-c3ccccc3)cccc12 [LY294002, reference compound] | – | – | reduced IE, E-L protein expression and virus yield | clearly reduced Akt phosphorylation |
